For the assay, the target named is endogenous PRMT1 (human (endogenous in the transfected cells; all lines cultured in the paper for transfection are human)) (UniProt Q99873). As to the kind of experiment: co-IP; lysates of cells expressing HA-GRs or HA-GRs-R540A; immunoprecipitation with an anti-PRMT1 antibody (endogenous PRMT1); Western blot.

Amino acid sequences for entries named in this document (tags omitted). Residues count along the entry.
UniProt Q99873: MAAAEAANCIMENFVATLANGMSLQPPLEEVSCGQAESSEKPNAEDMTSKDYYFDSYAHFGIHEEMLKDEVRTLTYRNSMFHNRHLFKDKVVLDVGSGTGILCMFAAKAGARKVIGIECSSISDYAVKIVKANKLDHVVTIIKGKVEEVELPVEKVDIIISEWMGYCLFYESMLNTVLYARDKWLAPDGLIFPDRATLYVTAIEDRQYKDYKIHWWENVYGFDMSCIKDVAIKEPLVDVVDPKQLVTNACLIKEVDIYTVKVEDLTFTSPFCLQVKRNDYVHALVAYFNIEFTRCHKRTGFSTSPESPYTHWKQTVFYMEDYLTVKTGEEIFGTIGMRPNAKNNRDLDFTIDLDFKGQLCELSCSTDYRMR
UniProt P14349, residues 477-625: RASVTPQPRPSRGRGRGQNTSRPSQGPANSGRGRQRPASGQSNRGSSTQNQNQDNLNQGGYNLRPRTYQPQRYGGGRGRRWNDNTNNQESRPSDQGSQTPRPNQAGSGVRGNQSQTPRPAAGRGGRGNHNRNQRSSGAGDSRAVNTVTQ

No constants are given. Whether binding was seen depends on the method and setting. Binding seen in cells or lysates may run through a third protein. Some results given as binding are weak or reduced against the parent protein; the word gives no strength.

The results in this text go back to article PMC6042332.

In the case of “HA-GRs (HA-tagged PFV Gag C-terminal domain encompassing the three GR boxes, aa 477-625) (from UniProt P14349 477-625) (domain or fragment)”, the binding entry was “binds”.
